Ends that are not written are not given here.
Tested on: L-type potential-sensitive calcium channel

Compound	blocking of calcium ion entry into Caco-2 cells	fluorescence intensity in Caco-2 cells after the peptide, between nifedipine groups
COC(=O)C1=C(C)NC(C)=C(C(=O)OC)C1c1ccccc1[N+](=O)[O-] [nifedipine, reference compound]	cannot block the entry of calcium ions into Caco-2 cells	
TEVPAINTIASAEPTVH [SEQ ID No. 1, TEVPAINTIASAEPTVH]		no significant difference

Source: patent US10829517B2, “Method for treating or/and preventing calcium deficiency-related diseases” (National Chung Hsing University, priority 2017, dated 2020)
